PubChem BioAssay AID743121 – NCATS – 2013
The deposit covers about 26,000 reagents; shown is an unselected part. Over the whole deposit, 167 (0.63%) were called active. 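Calls are per gene from RSA p-values that are not deposited; an individual active-marked siRNA can sensitise only weakly.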 Entries without a mark were called inactive. Further read-outs or replicates are left out here.

- Test: 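Knock-downs that sensitise breast cancer cells to camptothecin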 (primary screen)
- Cell system: MDA-MB-231 cells, a human breast cancer line
- Reagents: single siRNA against human genes, 20 nM siRNA (0.8 pmol per well)
- Timing: 120 h (drug added 48 h after transfection, read 72 h later)
- Conditions: camptothecin 20 nM (about EC30) for 72 h; vehicle 0.1% DMSO in parallel plates
- Detection: 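CellTiter-Glo ATP signal, scaled to control siRNA as percent viability; sensitisation given as log2 of untreated divided by camptothecin-treated viability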
- Reading the numbers: log2 vehicle/camptothecin viability: higher = stronger sensitisation to camptothecin; viability with camptothecin: higher = more viable cells
- Rule for the call: 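Active genes have an RSA gene-level p-value below 0.001, computed from the ratios of their separate siRNAs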

KIF13B (kinesin family member 13B) [SID164447128] → log2 vehicle/camptothecin viability: 0.0816; viability with camptothecin (% of control): 34.7
KIF13B (kinesin family member 13B) [SID164447130] → log2 vehicle/camptothecin viability: -0.0195; viability with camptothecin (% of control): 116
KIF13B (kinesin family member 13B) [SID164447131] → log2 vehicle/camptothecin viability: -0.0251; viability with camptothecin (% of control): 85.7
SH3BP4 (SH3 domain binding protein 4) [SID164449445] → log2 vehicle/camptothecin viability: -0.453; viability with camptothecin (% of control): 61.7
SH3BP4 (SH3 domain binding protein 4) [SID164449446] → log2 vehicle/camptothecin viability: 0.414; viability with camptothecin (% of control): 57.3
SH3BP4 (SH3 domain binding protein 4) [SID164449447] → log2 vehicle/camptothecin viability: 1.03; viability with camptothecin (% of control): 19.5
SH3BP4 (SH3 domain binding protein 4) [SID164449449] → log2 vehicle/camptothecin viability: -0.187; viability with camptothecin (% of control): 88.5
SOCS7 (suppressor of cytokine signaling 7) [SID164469341] → log2 vehicle/camptothecin viability: 0.438; viability with camptothecin (% of control): 59.1
SOCS7 (suppressor of cytokine signaling 7) [SID164469344] → log2 vehicle/camptothecin viability: -0.484; viability with camptothecin (% of control): 87.4
SOCS7 (suppressor of cytokine signaling 7) [SID164469346] → log2 vehicle/camptothecin viability: -0.0138; viability with camptothecin (% of control): 64.5
SOCS7 (suppressor of cytokine signaling 7) [SID164469349] → log2 vehicle/camptothecin viability: -0.0386; viability with camptothecin (% of control): 105
TH (tyrosine hydroxylase) [SID164391701] → log2 vehicle/camptothecin viability: -0.536; viability with camptothecin (% of control): 88.4
TH (tyrosine hydroxylase) [SID164391703] → log2 vehicle/camptothecin viability: 0.0545; viability with camptothecin (% of control): 95
TH (tyrosine hydroxylase) [SID164391704] → log2 vehicle/camptothecin viability: -0.467; viability with camptothecin (% of control): 37.8
TH (tyrosine hydroxylase) [SID164391706] → log2 vehicle/camptothecin viability: -0.365; viability with camptothecin (% of control): 94.8

Copied from the entries so far (2 entries):
KIF13B (kinesin family member 13B) [SID164447131] → log2 vehicle/camptothecin viability: -0.0251; viability with camptothecin (% of control): 85.7
SH3BP4 (SH3 domain binding protein 4) [SID164449445] → log2 vehicle/camptothecin viability: -0.453; viability with camptothecin (% of control): 61.7
